Source: US20230037188A1, “TASTEFUL NATURAL SWEETENER AND FLAVOR” (EPC Natural Products Co., Ltd., priority 2018, published 2023)

Assay: Sensory analysis (odor, color, taste) of model Maillard reactions in glycerol, buffer or dry conditions
Assay type: in vivo, persons
Set-up: key to Intensity of Smell: “+” for slight; “++” for moderate; “+++” for very strong
[1] = Example 5: 1 ml water + 9 ml Glycerin, 2.0 h, 120° C.
[2] = Example 3: 1 ml water + 9 ml Glycerin, 0.67 h, 100° C.
[3] = Example 6: Glycerin, 10 ml, 100° C., 5 min (time by order of lines)
[4] = Example 6: Glycerin, 10 ml, 100° C., 10 min (time by order of lines)
[5] = Example 6: Glycerin, 10 ml, 100° C., 20 min (time by order of lines)
[6] = Example 6: Glycerin, 10 ml, 100° C., 40 min (time by order of lines)
[7] = Example 7: Glycerin, 10 ml, 1 h, 120° C.
[8] = negative controls (no carbohydrate source): 10 ml glycerin/water=9:1, 100° C., 40 minutes
[9] = after reaction, 10 ml KH2PO4, pH 7.8, 2.5 h, 120° C., SG fractions of Example 36
[10] = before reaction, 10 ml KH2PO4, pH 7.8, glucuronic acid/glucuronolactone study
[11] = Example 1: 1 ml water + 9 ml Glycerin, 1 h, 100° C.
[12] = after reaction, 10 ml KH2PO4, pH 7.8, 2.5 h, 120° C., glucuronic acid/glucuronolactone study

O=C(O)[C@H](O)[C@@H](O)[C@H](O)[C@H](O)CO [0.1 mMol Gluc Acid]
Color [1]: Almost black | Intensity of Smell [1]: +++ | Smell [1]: burnt bread | Taste [1]: Bitter

NCCCC[C@H](N)C(=O)O [0.1 mMol Lys]
Color [2]: Brown | Smell [2]: Popcorn | Taste [2]: Sweet

N[C@@H](Cc1ccccc1)C(=O)O [3.3 mMol Phe]
Color [3]: No color | Smell [3]: Slightly bloomy | Color [4]: No color | Smell [4]: flowery/bloomy | Color [5]: Slightly Yellow | Smell [5]: flowery/bloomy | Color [6]: Yellow-slightly brown | Smell [6]: flowery/bloomy

OC[C@H]1OC(O)[C@H](O)[C@@H](O)[C@@H]1O (stereo partly drawn) [10 mMol Glu]
Color [6]: Slightly Yellow | Smell [6]: Slightly Caramel

OC1OC[C@@H](O)[C@H](O)[C@H]1O (stereo partly drawn) [10 mMol Xyl]
Color [7]: No color | Smell [7]: neutral

OC1OC[C@@H](O)[C@H](O)[C@H]1O (stereo partly drawn) [10 mmol Xyl]
Color [6]: Slightly Yellow | Smell [6]: Slightly Popcorn

N[C@@H](CC(=O)O)C(=O)O [13.3 mg Asp]
Color [8]: No color | Smell [8]: Unpleasant (plastic) | Taste [8]: Slightly sweet

NCCCC[C@H](N)C(=O)O [14.7 mg Lys]
Color [8]: brown | Smell [8]: Popcorn | Taste [8]: Slightly sweet

N[C@@H](Cc1ccccc1)C(=O)O [16.5 mg Phe]
Taste (after reaction (2.5 h, 120° C.), after dilution 1:20, SG fractions of Example 36): Sweet | Color [9]: Slightly | Smell [9]: Caramel | Smell (before reaction, 10 ml KH2PO4, pH 7.8, Stevia extract (SG fractions) of Example 36): Neutral | Smell [10]: neutral | Taste [10]: No taste | Taste (before reaction, after dilution 1:20, SG fractions of Example 36): No taste

O=C1O[C@@H]2[C@@H](O)[C@H](O)O[C@@H]2C1O (stereo partly drawn) [18 mg Glucurolactone]
Color [10]: No color | Smell [10]: neutral | Taste [10]: No taste

O=C[C@H](O)[C@@H](O)[C@H](O)[C@H](O)C(=O)O [18 mg Glucuronic Acid]
Color [10]: No color | Smell [10]: neutral | Taste [10]: No taste

N[C@@H](Cc1c[nH]c2ccccc12)C(=O)O [20.42 mg Try]
Color [8]: Slightly Yellow | Smell [8]: Unpleasant (fecal) | Taste [8]: Slightly sweet

OC1OC[C@@H](O)[C@H](O)[C@H]1O (stereo partly drawn) [167 mMol Xyl]
Color [11]: No color | Smell [11]: neutral/meat | Taste [11]: Sweet

OC[C@H]1OC(O)[C@H](O)[C@@H](O)[C@@H]1O (stereo partly drawn) [Glu]
Color [12]: Deep Yellow | Smell [12]: Burnt sugar | Taste [12]: Sweet/bitter

O=C[C@H](O)[C@@H](O)[C@H](O)[C@H](O)C(=O)O [Glucuronic Acid]
Smell [12]: burnt bread | Taste [12]: Bitter
